In PubChem BioAssay AID1487 (National Center for Advancing Translational Sciences (NCATS), 2009):
Some of the results follow. Further columns of the screen follow, without active or inactive calls. Most of these compounds were active or inconclusive in the main read-out, so they are no random draw. Potencies come from curve fits of mixed quality, noted in brackets.

Assay: qHTS Assay for Modulators of Lamin A Splicing
Conditions: HeLa LMNA splicing GFP/RFP minigene ratio, 48 h
Procedure, shortened: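 Read-out is the ratio of GFP to DsRed2 object intensity, acquired by 488 nm laser-scanning cytometry on HeLa lamin A-EGFP minigene reporter cells. Compound incubation 48 hrs at 37 °C in Opti-MEM with 2% FBS; DMSO 0.5% final.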

[1] = measured here: GFP splicing reporter channel
[2] = measured here: RFP viability control channel

Row | SMILES | AC50 [1] | AC50 [2]
1 | O=C(CCCCCN1C(=O)c2ccccc2C1=O)Oc1ccc2c3c(c(=O)oc2c1)CCC3 | 35.5 µM [falling, single point] | 
2 | CCN(CC)c1ccc(C(=O)N/N=C(\C)c2ccc(O)cc2)cc1 | 31.6 µM [falling, single point] | 35.5 µM [falling, single point]
3 | Cn1nc(C(C)(C)C)cc1C(=O)NCc1ccc(N2CCCC2=O)cc1 |  | 2 µM [rising, full curve]
4 | COc1ccc(/C=N/NC(=O)c2ccn[nH]2)cc1COc1ccc(Cl)cc1Cl |  | 28.2 µM [rising, single point]
5 | Cc1ccc(C)c(N2CCN(C(=O)CCNS(=O)(=O)c3ccc4c(c3)CCN4C(=O)C3CC3)CC2)c1 | 35.5 µM [falling, partial curve] | 35.5 µM [falling, partial curve, poor fit]
6 | O=C(C1CCC(Cn2c(=O)c3sccc3n(Cc3ccccc3)c2=O)CC1)N1CCCCC1 (stereo not drawn) |  | 35.5 µM [falling, single point]
7 | Cc1ccc(C(=O)N2CCN(S(=O)(=O)N3CCOCC3)CC2)cc1 | 2 µM [rising, single point] | 
8 | COc1ccc(OC)c(NC(=O)CC2C(=O)NCCN2C(=O)C(F)(F)F)c1 (stereo not drawn) |  | 0.00447 µM [falling, full curve, poor fit]
9 | COc1ccc2c(=O)c(Oc3ccc(C(=O)O)cc3)c(C(F)(F)F)oc2c1 | 0.0282 µM [falling, full curve, poor fit] | 
10 | COc1ccc(Br)cc1C(=O)Nc1cccc(NC(=O)c2ccco2)c1 |  | 14.1 µM [rising, single point]
11 | O=C(Nc1c(C(=O)O)[nH]c2ccccc12)NC1CCCCC1 |  | 0.0355 µM [falling, full curve, poor fit]
12 | O=C(c1cccc(S(=O)(=O)NCCOc2ccccc2)c1)N1CCN(c2ncccn2)CC1 | 4.47 µM [rising, partial curve] | 17.8 µM [rising, partial curve]
13 | COc1ccccc1N(CC(=O)Nc1ccc(S(=O)(=O)N2CCCCC2)cc1)S(C)(=O)=O |  | 15.8 µM [rising, single point]
14 | Cc1ccc(NC(=O)c2cnc(SCC(=O)N3CCOCC3)n(C)c2=O)cc1C | 2.51 µM [falling, partial curve] | 35.5 µM [falling, single point]
15 | O=C(CCCc1nc(-c2ccc(Cl)cc2)no1)N1CCOCC1 |  | 12.6 µM [rising, partial curve]
16 | CCCc1cc(-c2n[nH]c(C)c2-c2ccc(C(=O)OCC)o2)c(O)cc1O |  | 12.6 µM [rising, single point]
17 | CCn1c(=O)c(C(=O)Nn2c(C)nc3ccccc3c2=O)c(O)c2ccccc21 | 25.1 µM [rising, single point] | 20 µM [rising, single point]
18 | S=C(NCCc1ccccc1)NC1CCCCCC1 |  | 12.6 µM [rising, partial curve, poor fit]
19 | CN(C(=O)CSc1nnc(-c2ccc(F)cc2)c2ccccc12)C1CCS(=O)(=O)C1 (stereo not drawn) |  | 11.2 µM [rising, partial curve]
20 | CNS(=O)(=O)c1cccc(C(=O)Nc2cccc(Cl)c2)c1 |  | 35.5 µM [rising, single point]
21 | COc1ccc(NC(=O)c2cc3n(n2)C(C(F)(F)F)CC(c2ccc4c(c2)OCO4)N3)cc1OC (stereo not drawn) |  | 0.562 µM [rising, full curve, poor fit]
22 | NC(CCC(=O)N[C@@H](CS)C(=O)NCC(=O)O)C(=O)O (stereo partly drawn) | 0.00316 µM [falling, full curve, poor fit] | 14.1 µM [rising, single point]
23 | COC(=O)CN1C(=O)CSc2ccc(S(=O)(=O)Nc3ccc(C(C)=O)cc3)cc21 |  | 1.26 µM [falling, partial curve]
24 | CC(C)(CNc1ccc([N+](=O)[O-])cc1Cl)CNS(C)(=O)=O | 15.8 µM [rising, single point] | 11.2 µM [rising, single point]
25 | CCOC(=O)c1cnc2c(OC)cccc2c1N1CCN(c2ccc(OC)cc2)CC1 |  | 10 µM [rising, partial curve]
26 | Cc1ccc(COCC(CC(C)C)N2CCN(C(=O)c3cccc(C(F)(F)F)c3)CCC2=O)cc1 (stereo not drawn) | 14.1 µM [rising, partial curve, poor fit] | 14.1 µM [rising, partial curve]
27 | O=C(Nc1ccccc1C(=O)NCc1ccccc1)c1ccccc1Br |  | 35.5 µM [rising, single point]

Row | SMILES | AC50 [1] | AC50 [2]
28 | COc1ccc(S(=O)(=O)NCCc2csc3nc(-c4cccc(C)c4)nn23)cc1F | 0.00355 µM [falling, full curve, poor fit] | 0.00447 µM [falling, full curve, poor fit]
29 | Cc1ccc([N+](=O)[O-])cc1S(=O)(=O)N1CCC(C)CC1 | 0.0447 µM [rising, partial curve, poor fit] | 0.178 µM [rising, partial curve]
30 | COc1ccccc1NC(=O)CSc1nnc(NC(=O)Nc2ccc(C)cc2)s1 | 35.5 µM [falling, single point] | 35.5 µM [falling, single point]
31 | Cc1ccc(S(=O)(=O)N2CCCc3cc(NS(=O)(=O)c4cccc(Cl)c4)ccc32)cc1 | 11.2 µM [rising, single point] | 15.8 µM [rising, single point]
32 | CN(C)CCNC(=O)c1ccc2c(c1)NC(=O)C(CS(=O)(=O)Cc1cccc(Br)c1)N2 (stereo not drawn) | 0.562 µM [falling, single point] | 0.0178 µM [falling, full curve, poor fit]
33 | Cc1cccc(NC(=O)c2cc3n(n2)C(C(F)(F)F)CC(c2ccc4c(c2)OCO4)N3)c1 (stereo not drawn) |  | 4.47 µM [rising, single point]
34 | COc1ccc2cc(CN(Cc3ccco3)Cc3nnnn3C3CCCCC3)c(=O)[nH]c2c1 | 7.94 µM [rising, partial curve] | 11.2 µM [rising, partial curve]
35 | N#Cc1nc(COc2ccc(Br)cc2)oc1N1CCCC1 |  | 31.6 µM [rising, single point]
36 | CCc1nnc(NC(=O)CSc2nnc(-c3ccccc3O)o2)s1 | 0.316 µM [falling, full curve, poor fit] | 
37 | C[C@@H](C(=O)Nc1ccc2ccccc2c1)[C@H]1C[C@]1(C)[C@H](NC(=O)c1cnccn1)c1ccccc1 |  | 11.2 µM [rising, partial curve]
38 | COc1cccc(NC(=O)c2ccc(CN3CCOCC3)cc2)c1 |  | 14.1 µM [rising, single point]
39 | Cc1ccc(CCNC(=O)c2ccc3c(c2)nc2n3CCCCC2)cc1 |  | 0.794 µM [rising, single point]
40 | COc1ccc(S(=O)(=O)Nc2ccc(-c3ccc(N4CCCC4)nn3)cc2)cc1F | 0.01 µM [falling, full curve, poor fit] | 0.00794 µM [falling, full curve, poor fit]
41 | CCOC(=O)C(NC(C)=O)(N1CCc2ccccc2C1)C(F)(F)F (stereo not drawn) |  | 35.5 µM [falling, single point]
42 | CSc1cccc(NS(=O)(=O)c2cccc3nsnc23)c1 |  | 20 µM [rising, single point]
43 | O=C1c2ccccc2C(Nc2ccc3c(c2)OCCO3)N1Cc1ccco1 (stereo not drawn) | 14.1 µM [rising, single point] | 22.4 µM [rising, partial curve]
44 | c1ccc(-c2ccc(C3=Nn4c(nnc4-c4cc(-c5ccccc5)n[nH]4)SC3)cc2)cc1 | 35.5 µM [falling, single point] | 35.5 µM [falling, single point]
45 | CCc1cccc(NS(=O)(=O)c2ccc3c(c2)CCC(=O)N3)c1 | 2.24 µM [falling, partial curve] | 2.51 µM [falling, partial curve]
46 | Cc1ccc(-c2nn3c(=O)cc(CN4CCN(C(=O)/C=C/c5ccccc5)CC4)nc3s2)cc1 | 0.501 µM [rising, partial curve, poor fit] | 
47 | CCc1ccc(-c2cn3c(n2)sc2cc(C(=O)NCCC4=CCCCC4)ccc23)cc1 |  | 0.02 µM [falling, full curve, poor fit]
48 | Cc1[nH]n(-c2ncc(-c3ccc(Cl)cc3)s2)c(=O)c1C(c1ccc(Cl)cc1)C(C#N)C#N (stereo not drawn) |  | 17.8 µM [rising, partial curve, poor fit]
49 | O=C(COc1ccccc1)N1CCc2ccccc21 | 12.6 µM [rising, single point] | 
50 | CC(C)c1ccc(NC(=O)Cn2cc(S(=O)(=O)Cc3cccc(Cl)c3)c3ccccc32)cc1 |  | 28.2 µM [falling, partial curve]
51 | CCCN(CCC)C(=S)Nc1cc(C(=O)OC)ccc1C(=O)OC |  | 20 µM [rising, single point]
52 | COc1ccc(C(=O)Nc2nc3n(n2)C(c2ccccc2)C=C(c2ccccc2)N3)cc1 (stereo not drawn) |  | 0.1 µM [falling, partial curve]
53 | O=C1CCCCC1C(=O)c1cn(-c2ccc(Cl)c(Cl)c2)nn1 (stereo not drawn) | 0.2 µM [falling, full curve, poor fit] | 15.8 µM [falling, partial curve, poor fit]
54 | O=C(CP(=O)(c1ccccc1)c1ccccc1)N/N=C/c1cc(Br)cc(Br)c1O |  | 12.6 µM [rising, partial curve]

Three records drawn at random from the list so far, as already listed:
Row | SMILES | AC50 [1] | AC50 [2]
39 | Cc1ccc(CCNC(=O)c2ccc3c(c2)nc2n3CCCCC2)cc1 |  | 0.794 µM [rising, single point]
50 | CC(C)c1ccc(NC(=O)Cn2cc(S(=O)(=O)Cc3cccc(Cl)c3)c3ccccc32)cc1 |  | 28.2 µM [falling, partial curve]
52 | COc1ccc(C(=O)Nc2nc3n(n2)C(c2ccccc2)C=C(c2ccccc2)N3)cc1 (stereo not drawn) |  | 0.1 µM [falling, partial curve]
